Results are given in words; binding and its absence hold for the method and conditions named. Some binding calls cover weakened binding; strength is not graded here. Each block holds one binder with its values, some of them ahead of it.
Legend:
[1] = target: human PRB1 protein (human) (UniProt P04280); assay: sandwich ELISA: 2B3 mAb coated as capture, 8A10 mAb as detection, OD450; human saliva and serum samples
[2] = target: human PRB1 protein (human) (UniProt P04280); assay: sandwich ELISA of section 4: 2B3 mAb as capture, 8A10 mAb as detection; human saliva and serum samples
[3] = target: human PRB1 protein (human) (UniProt P04280); assay: pull-down assay from human serum
[4] = target: human PRB1 protein (human) (UniProt P04280); assay: Western blotting of human saliva

Chains of the proteins cited; added tags and fusions are not shown. Residues count along the entry.
UniProt P04280, residues 17-392: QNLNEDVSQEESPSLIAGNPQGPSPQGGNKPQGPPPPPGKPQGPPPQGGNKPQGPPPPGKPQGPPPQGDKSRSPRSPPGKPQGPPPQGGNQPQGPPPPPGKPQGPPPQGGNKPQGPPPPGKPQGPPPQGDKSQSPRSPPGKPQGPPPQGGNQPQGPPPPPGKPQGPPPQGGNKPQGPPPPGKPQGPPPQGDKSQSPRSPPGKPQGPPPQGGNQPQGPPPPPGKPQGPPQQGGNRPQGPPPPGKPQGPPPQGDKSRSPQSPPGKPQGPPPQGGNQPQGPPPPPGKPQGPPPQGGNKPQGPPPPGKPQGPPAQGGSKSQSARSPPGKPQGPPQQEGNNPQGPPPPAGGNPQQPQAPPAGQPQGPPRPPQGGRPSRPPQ

binding [1]: binds
binding [2]: binds
B1: Rat anti-hPRB1 IgM(2B3) mAb (antibody, V domains shown)
VH: QIQLVQSGPELKKPGESVKISCKASGYTFTDYAMHWVKQAPGKGLKWMGWINTYTGKPTYADDCKGRFVFSLEASASTANLQISNLKNEDTATYFCAREMYTTDYYYVDYWGQGVMVTVSS
VL: DIHVTQSPASLSASPEEIVTITCQASQDIDSSLLWYQQKPGKSPQLLIYSATILADGVPSRFSGSRSGTQYSLKISRLQVEDIGTYYCLQFSSSPLTFGSGTKLEIK

binding [1]: binds
binding [3]: binds
binding [2]: binds
binding [4]: binds
B2: Rat anti-hPRB1 IgG(8A10) mAb (antibody, V domains shown)
VH: QVNLLQSGAALVKPGASVKLSCKASGYTFTDYYIHWVRQSHGKSLEWIGFINPNSGYTTYNEKFKSKATLTVDKSTNTAYMELSRLTSEDSATYYCTRFAMDAWGQGASVTVSS
VL: DVVVSQTPPTLSATIGQSVSISCRSSQSLLHSNGNTYLNWLLQRPGQPPQLLIYLVSRLESGVPNRFSGSGSGTDFTLKISGVEAEDLGVYYCVQSIHAPNTFGAGTKLELK
